Data on 27 compounds can be found in the supplement of paper PMC4604168 (melanoma cell lines).

This is one part of the list. Many values rest on one well or one pass, so single values are uncertain.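 Cells were imaged in 1,536-well plates, and nuclei stained with an antibody against cleaved PARP were counted against all DNA-stained nuclei to give the apoptosis fraction. Screening doses were chosen to leave most cells alive, and resting and induced cleaved-PARP levels differ strongly between cell lines.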

The test system of this assay is WM115. The assay can be described thus: cleaved PARP positive nuclei fraction relative to DMSO control; melanoma cells; higher = more apoptosis. The conditions noted are these: library dose: low library concentration; 72 h.
As for `Cc1cn(-c2cc(NC(=O)c3ccc(C)c(Nc4nccc(-c5cccnc5)n4)c3)cc(C(F)(F)F)c2)cn1` [nilotinib] + Cc1ccc(NC(=O)c2cccc(N(C)C)c2)cc1NC(=O)c1ccc(O)cc1 [ZM336372] (first compound 0.2 µM, partner dose 2 µM), the “cleaved PARP positive nuclei fraction” value is 35.3%.

Consider `CC[C@]1(O)C[C@H]2CN(CCc3c([nH]c4ccccc34)[C@@](C(=O)OC)(c3cc4c(cc3OC)N(C=O)[C@H]3[C@@](O)(C(=O)OC)[C@H](OC(C)=O)[C@]5(CC)C=CCN6CC[C@]43[C@@H]65)C2)C1` [vincristine] + O=C(Nc1cccc(Cl)c1)Nc1ncc(CCNc2ncnc3ccsc23)s1 [SNS314] (first compound 0.0001 µM, partner dose 0.0008 µM), for which the “cleaved PARP positive nuclei fraction” value worked out at 1080%.

Take `Cc1ccc(Nc2nccc(N(C)c3ccc4c(C)n(C)nc4c3)n2)cc1S(N)(=O)=O` [Pazopanib] + O=C(Nc1cccc(Cl)c1)Nc1ncc(CCNc2ncnc3ccsc23)s1 [SNS314] (first compound 0.4 µM, partner dose 0.0008 µM): the “cleaved PARP positive nuclei fraction” value worked out at 180%.

In the case of `CC[C@]1(O)C[C@H]2CN(CCc3c([nH]c4ccccc34)[C@@](C(=O)OC)(c3cc4c(cc3OC)N(C=O)[C@H]3[C@@](O)(C(=O)OC)[C@H](OC(C)=O)[C@]5(CC)C=CCN6CC[C@]43[C@@H]65)C2)C1` [vincristine] + COc1ccc(-c2ccc3c(N4CCOCC4)nc(N4C[C@@H](C)O[C@@H](C)C4)nc3n2)cc1CO [KU0063794] (first compound 0.0001 µM, partner dose 0.02 µM), the “cleaved PARP positive nuclei fraction” value worked out at 420%.

`O=c1[nH]nc(Sc2ncc([N+](=O)[O-])s2)n1-c1ccc2c(c1)OCCO2` + COc1cc(Nc2ncc(F)c(Nc3ccc4c(n3)NC(=O)C(C)(C)O4)n2)cc(OC)c1OC [Tamatinib] (first compound 0.2 µM, partner dose 0.4 µM): the “cleaved PARP positive nuclei fraction” value was 115%.

Consider `O=C(/C=C/c1cccnc1)NCCCCC1CCN(C(=O)c2ccccc2)CC1` + Cc1cc(N2CCOCC2)cc2[nH]c(-c3c(NC[C@@H](O)c4cccc(Cl)c4)cc[nH]c3=O)nc12 [BMS536924] (first compound 0.01 µM, partner dose 0.2 µM), for which the “cleaved PARP positive nuclei fraction” value was 262%.

As to `Cc1cc(Nc2cc(N3CCN(C)CC3)nc(Sc3ccc(NC(=O)C4CC4)cc3)n2)n[nH]1` [Tozasertib] + CC1(C)NC(=O)N(c2ccc([N+](=O)[O-])c(C(F)(F)F)c2)C1=O [nilutamide] (first compound 0.006 µM, partner dose 1 µM), the “cleaved PARP positive nuclei fraction” value was determined as 152%.

With `O=C(/C=C/c1cccnc1)NCCCCC1CCN(C(=O)c2ccccc2)CC1` + O=S(=O)(c1ccccc1)N(CC(F)(F)F)c1ccc(C(O)(C(F)(F)F)C(F)(F)F)cc1 [T0901317] (first compound 0.01 µM, partner dose 1.4 µM), the “cleaved PARP positive nuclei fraction” value came out at 155%.

Consider `CC[C@]1(O)C[C@H]2CN(CCc3c([nH]c4ccccc34)[C@@](C(=O)OC)(c3cc4c(cc3OC)N(C=O)[C@H]3[C@@](O)(C(=O)OC)[C@H](OC(C)=O)[C@]5(CC)C=CCN6CC[C@]43[C@@H]65)C2)C1` [vincristine] + Cc1cc(N2CCOCC2)cc2[nH]c(-c3c(NC[C@@H](O)c4cccc(Cl)c4)cc[nH]c3=O)nc12 [BMS536924] (first compound 0.0001 µM, partner dose 0.2 µM), for which the “cleaved PARP positive nuclei fraction” value came to 1020%.

For `O=c1[nH]nc(Sc2ncc([N+](=O)[O-])s2)n1-c1ccc2c(c1)OCCO2` + O=c1cc(-c2cccc3c2Sc2ccccc2S3)oc(N2CCOCC2)c1 [KU55933] (first compound 0.2 µM, partner dose 1 µM), the “cleaved PARP positive nuclei fraction” value was 66.4%.

On to `COc1cc([C@@H]2c3cc4c(cc3[C@@H](O[C@@H]3O[C@@H]5CO[C@@H](C)O[C@H]5[C@H](O)[C@H]3O)[C@H]3COC(=O)[C@H]23)OCO4)cc(OC)c1O` [etoposide] + O=C1NC(=O)/C(=C/c2ccc(-c3ccc(F)cc3O)o2)S1 [AS252424] (first compound 0.02 µM, partner dose 1 µM), for which the “cleaved PARP positive nuclei fraction” value is 182%.

Consider `Cc1cn(-c2cc(NC(=O)c3ccc(C)c(Nc4nccc(-c5cccnc5)n4)c3)cc(C(F)(F)F)c2)cn1` [nilotinib] + CCCCCCCCCCCC1=C(O)C(=O)C=C(O)C1=O [Embelin] (first compound 0.2 µM, partner dose 1.2 µM), for which the “cleaved PARP positive nuclei fraction” value came out at 83.5%.

With `O=c1[nH]nc(Sc2ncc([N+](=O)[O-])s2)n1-c1ccc2c(c1)OCCO2` + CCCCCCCCCCCC1=C(O)C(=O)C=C(O)C1=O [Embelin] (first compound 0.2 µM, partner dose 1.2 µM), the “cleaved PARP positive nuclei fraction” value turned out to be 66.4%.

For `O=c1[nH]nc(Sc2ncc([N+](=O)[O-])s2)n1-c1ccc2c(c1)OCCO2` + O=C(Nc1cccc(Cl)c1)Nc1ncc(CCNc2ncnc3ccsc23)s1 [SNS314] (first compound 0.2 µM, partner dose 0.0008 µM), the “cleaved PARP positive nuclei fraction” value was 204%.

Take `CCCCCCCCCCCCCCCCCCOP(=O)([O-])OC1CC[N+](C)(C)CC1` [Perifosine] + NC(=O)Nc1cc(-c2cccc(F)c2)sc1C(=O)N[C@H]1CCCNC1 [AZD7762] (first compound 0.4 µM, partner dose 0.02 µM): the “cleaved PARP positive nuclei fraction” value is 198%.

Take `COc1cc([C@@H]2c3cc4c(cc3[C@@H](O[C@@H]3O[C@@H]5CO[C@@H](C)O[C@H]5[C@H](O)[C@H]3O)[C@H]3COC(=O)[C@H]23)OCO4)cc(OC)c1O` [etoposide] + COc1cc(N2CCC(N3CCN(C)CC3)CC2)ccc1Nc1ncc(Cl)c(Nc2ccccc2S(=O)(=O)C(C)C)n1 [NVP-TAE684] (first compound 0.02 µM, partner dose 0.08 µM): the “cleaved PARP positive nuclei fraction” value stood at 90.4%.

`Cc1cc(Nc2cc(N3CCN(C)CC3)nc(Sc3ccc(NC(=O)C4CC4)cc3)n2)n[nH]1` [Tozasertib] + COc1cc(N2CCC(N3CCN(C)CC3)CC2)ccc1Nc1ncc(Cl)c(Nc2ccccc2S(=O)(=O)C(C)C)n1 [NVP-TAE684] (first compound 0.006 µM, partner dose 0.08 µM): the “cleaved PARP positive nuclei fraction” value is 64.1%.

Regarding `CCCCCCCCCCCCCCCCCCOP(=O)([O-])OC1CC[N+](C)(C)CC1` [Perifosine] + O=S(=O)(c1ccccc1)N(CC(F)(F)F)c1ccc(C(O)(C(F)(F)F)C(F)(F)F)cc1 [T0901317] (first compound 0.4 µM, partner dose 1.4 µM), the “cleaved PARP positive nuclei fraction” value turned out to be 170%.

Turning to `CC[C@]1(O)C[C@H]2CN(CCc3c([nH]c4ccccc34)[C@@](C(=O)OC)(c3cc4c(cc3OC)N(C=O)[C@H]3[C@@](O)(C(=O)OC)[C@H](OC(C)=O)[C@]5(CC)C=CCN6CC[C@]43[C@@H]65)C2)C1` [vincristine] + Cn1cncc1[C@@](N)(c1ccc(Cl)cc1)c1ccc2c(c1)c(-c1cccc(Cl)c1)cc(=O)n2C [tipifarnib] (first compound 0.0001 µM, partner dose 0.01 µM), the “cleaved PARP positive nuclei fraction” value came to 1850%.

Regarding `Cc1cn(-c2cc(NC(=O)c3ccc(C)c(Nc4nccc(-c5cccnc5)n4)c3)cc(C(F)(F)F)c2)cn1` [nilotinib] + CN(NC(=O)CC(=O)NN(C)C(=S)c1ccccc1)C(=S)c1ccccc1 [STA4783] (first compound 0.2 µM, partner dose 0.006 µM), the “cleaved PARP positive nuclei fraction” value was 107%.

On to `O=C(/C=C/c1cccnc1)NCCCCC1CCN(C(=O)c2ccccc2)CC1` + O=C(Nc1ccccc1)c1cc([N+](=O)[O-])ccc1Cl [GW9662] (first compound 0.01 µM, partner dose 2 µM), for which the “cleaved PARP positive nuclei fraction” value was 37.3%.

As to `CC[C@]1(O)C[C@H]2CN(CCc3c([nH]c4ccccc34)[C@@](C(=O)OC)(c3cc4c(cc3OC)N(C=O)[C@H]3[C@@](O)(C(=O)OC)[C@H](OC(C)=O)[C@]5(CC)C=CCN6CC[C@]43[C@@H]65)C2)C1` [vincristine] + O=c1cc(-c2cccc3c2Sc2ccccc2S3)oc(N2CCOCC2)c1 [KU55933] (first compound 0.0001 µM, partner dose 1 µM), the “cleaved PARP positive nuclei fraction” value stood at 1970%.

For the compound `N#CC[C@H](C1CCCC1)n1cc(-c2ncnc3[nH]ccc23)cn1` [ruxolitinib] + NCC(=O)Nc1ccc(-n2nc(C(F)(F)F)cc2-c2ccc3c(ccc4ccccc43)c2)cc1 [OSU03012] (first compound 1 µM, partner dose 1 µM), the “cleaved PARP positive nuclei fraction” value worked out at 46.7%.

Turning to `O=c1[nH]nc(Sc2ncc([N+](=O)[O-])s2)n1-c1ccc2c(c1)OCCO2` + CC(C)CCN1c2nc(Nc3cc(F)c(O)c(F)c3)ncc2N(C)C(=O)C1C [BID1870] (first compound 0.2 µM, partner dose 0.2 µM), the “cleaved PARP positive nuclei fraction” value turned out to be 147%.

For `Cc1cn(-c2cc(NC(=O)c3ccc(C)c(Nc4nccc(-c5cccnc5)n4)c3)cc(C(F)(F)F)c2)cn1` [nilotinib] + O=C(Nc1cccc(Cl)c1)Nc1ncc(CCNc2ncnc3ccsc23)s1 [SNS314] (first compound 0.2 µM, partner dose 0.0008 µM), the “cleaved PARP positive nuclei fraction” value turned out to be 87.8%.

With `Cc1ccc(Nc2nccc(N(C)c3ccc4c(C)n(C)nc4c3)n2)cc1S(N)(=O)=O` [Pazopanib] + O=S(=O)(c1ccccc1)N(CC(F)(F)F)c1ccc(C(O)(C(F)(F)F)C(F)(F)F)cc1 [T0901317] (first compound 0.4 µM, partner dose 1.4 µM), the “cleaved PARP positive nuclei fraction” value worked out at 41.5%.

As to `CCCCCCCCCCCCCCCCCCOP(=O)([O-])OC1CC[N+](C)(C)CC1` [Perifosine] + CC(C)(C)c1cnc(CSc2cnc(NC(=O)C3CCNCC3)s2)o1 [SNS-032] (first compound 0.4 µM, partner dose 0.01 µM), the “cleaved PARP positive nuclei fraction” value was found to be 170%.
